Laboratory results published in US7528225B2, “Peptide epitopes of apolipoprotein B” (Forskarpapatent I Syd, priority 2001, dated 2009).
Entries after “also recorded” stand apart in the source; their conditions may differ. Some entries repeat one wording, which the source may state once for all of them.

How the values were obtained:
[1] = system: antibodies in human plasma; experiment: Peptide ELISA screening of the apo B peptide library with pooled human plasma (AHP/NHP, CHD/control); format: binding; set-up: key to Group of antibody response to the peptide (Table 1, groups A-G): High levels of IgG antibodies to MDA-modified peptides; B: High levels of IgM antibodies, but no difference between native and MDA-modified peptides; C: High levels of IgG antibodies, but no difference between native and MDA-modified peptides; High levels of IgG antibodies to MDA-modified peptides and at least twice as much antibodies in the NHP-pool as compared to the AHP-pool; E: High levels of IgM antibodies to MDA-modified peptides and at least twice as much antibodies in the NHP-pool as compared to the AHP-pool; F: High levels of IgG antibodies, but no difference between intact and MDA-modified peptides but at least twice as much antibodies in the AHP-pool as compared to the NHP-pool; No level of IgG or IgM antibodies; settings: for Group of antibody response to the peptide (Table 1, groups A-G): pooled human plasma AHP and NHP diluted 1/100, native and MDA-modified peptides, IgG or IgM; for antibody titers, control plasma compared to plasma from CHD subjects: pooled plasma from healthy controls vs pooled CHD plasma (n=10); for antibody response in the initial antibody screening (in words): pooled human plasma, native vs MDA modified form
[2] = system: antibodies against MDA-modified peptide sequences in apo B-100; experiment: Prospective nested case control study (78 cases, 149 controls): antibody levels against MDA-modified apo B-100 peptides, carotid IMT and CHD; set-up: species or system human; settings: for antibody levels in cases as compared to controls, younger age group: MDA-modified peptides, under the median age (61 years)

Row | Substance | Group of antibody response to the peptide (Table 1, groups A-G) [1] | antibody titers, control plasma compared to plasma from CHD subjects [1] | other results
1 | ALLVPPETEEAKQVLFLDTV [Peptide 10] | F. NHS/AHP, IgG-ak < 0.5, no MDA-difference | higher in plasma from CHD patients | 
2 | ATRFKHLRKYTYNYQAQSSS [Peptide 2] | G. |  | antibody response in the initial antibody screening (in words) [1]: no antibody response
3 | CTGDEDYTYKIKRVIGNMGQ [Peptide 31] | E. NHS/AHP, IgM-ak > 2, MDA-difference |  | 
4 | DGSLRHKFLDSNIKFSHVEK [Peptide 94] | B. High IgM, no MDA-difference |  | 
5 | DMTFSKQNALLRSEYQADYE [Peptide 105] | B. High IgM, no MDA-difference |  | 
6 | EATLQRIYSLWEHSTKNHLQ [Peptide 236] | E. NHS/AHP, IgM-ak > 2, MDA-difference | at least twice as high | 
7 | EEEMLENVSLVCPKDATRFK [Peptide 1] | D. NHS/AHP, IgG-ak > 2, MDA-difference | at least twice as high | antibody response in the initial antibody screening (in words) [1]: higher IgG or IgM antibody response to MDA modified form than native peptide, respectively
8 | EVDVLTKYSQPEDSLIPFFE [Peptide 252] | D. NHS/AHP, IgG-ak > 2, MDA-difference | at least twice as high | 
9 | FKSSVITLNTNAELFNQSDI [Peptide 222] | F. NHS/AHP, IgG-ak < 0.5, no MDA-difference | higher in plasma from CHD patients | 
10 | FLDTVYGNCSTHFTVKTRKG [Peptide 11] | A. High IgG, MDA-difference |  | 
11 | FPDLGQEVALNANTKNQKIR [Peptide 240] | F. NHS/AHP, IgG-ak < 0.5, no MDA-difference | higher in plasma from CHD patients | 
12 | GHSVLTAKGMALFGEGKAEF [Peptide 199] | F. NHS/AHP, IgG-ak < 0.5, no MDA-difference | higher in plasma from CHD patients | 
13 | GNMGQTMEQLTPELKSSILK [Peptide 32] | E. NHS/AHP, IgM-ak > 2, MDA-difference |  | antibody levels in cases as compared to controls, younger age group [2]: increased antibody levels
14 | GSTSHHLVSRKSISAALEHK [Peptide 129] | D. NHS/AHP, IgG-ak > 2, MDA-difference |  | 
15 | HTFLIYITELLKKLQSTTVM [Peptide 301] | E. NHS/AHP, IgM-ak > 2, MDA-difference | at least twice as high | antibody response in the initial antibody screening (in words) [1]: higher IgG or IgM antibody response to MDA modified form than native peptide, respectively
16 | IALDDAKINFNEKLSQLQTY [Peptide 143] | C. High IgG, no MDA difference |  | 
17 | IEIGLEGKGFEPTLEALFGK [Peptide 45] | F. NHS/AHP, IgG-ak < 0.5, no MDA-difference | higher in plasma from CHD patients | antibody levels in cases as compared to controls, younger age group [2]: increased antibody levels
18 | IENIDFNKSGSSTASWIQNV [Peptide 148] | D. NHS/AHP, IgG-ak > 2, MDA-difference | at least twice as high | 
19 | IQKAAIQALRKMEPKDKDQE [Peptide 34] | E. NHS/AHP, IgM-ak > 2, MDA-difference |  | 

Row | Substance | Group of antibody response to the peptide (Table 1, groups A-G) [1] | antibody titers, control plasma compared to plasma from CHD subjects [1] | other results
20 | IREVTQRLNGEIQALELPQK [Peptide 162] | D. NHS/AHP, IgG-ak > 2, MDA-difference | at least twice as high | 
21 | KGTYGLSCQRDPNTGRLNGE [Peptide 99] | B. High IgM, no MDA-difference |  | 
22 | KLVKEALKESQLPTVMDFRK [Peptide 40] | B. High IgM, no MDA-difference |  | 
23 | KTTKQSFDLSVKAQYKKNKH [Peptide 210] | C. High IgG, no MDA difference |  | 
24 | LKFVTQAEGAKQTEATMTFK [Peptide 68] | B. High IgM, no MDA-difference |  | 
25 | LLDIANYLMEQIQDDCTGDE [Peptide 30] | E. NHS/AHP, IgM-ak > 2, MDA-difference |  | 
26 | MDA 74: peptide 74 modified by 0.5 M MDA (malone dialdehyde) (VISIPRLQAEARSEILAHWS) |  |  | IgM levels against MDA peptide, cases ([2]; 78 cases, median): 0.178 absorbance units; IgM levels against MDA peptide, controls ([2]; 149 controls, median): 0.258 absorbance units
27 | MKVKIIRTIDQMQNSELQWP [Peptide 177] | B. High IgM, no MDA-difference |  | 
28 | NLIGDFEVAEKINAFRAKVH [Peptide 154] | F. NHS/AHP, IgG-ak < 0.5, no MDA-difference | higher in plasma from CHD patients | 
29 | PQCSTHILQWLKRVHANPLL [Peptide 25] | A. High IgG, MDA-difference |  | 
30 | RLNGESNLRFNSSYLQGTNQ [Peptide 100] |  | at least twice as high | Group of antibody response to the peptide (Table 1, groups A-G) ([1]; listed as P 100): B. High IgM, no MDA-difference; also recorded: E. NHS/AHP, IgM-ak > 2, MDA-difference
31 | SGASMKLTTNGRFREHNAKF [Peptide 111] | F. NHS/AHP, IgG-ak < 0.5, no MDA-difference | higher in plasma from CHD patients | 
32 | SLNSHGLELNADILGTDKIN [Peptide 107] | E. NHS/AHP, IgM-ak > 2, MDA-difference | at least twice as high | 
33 | SLTSTSDLQSGIIKNTASLK [Peptide 102] | B. High IgM, no MDA-difference |  | 
34 | SSILKCVQSTKPSLMIQKAA [Peptide 33] | E. NHS/AHP, IgM-ak > 2, MDA-difference |  | 
35 | TASLKYENYELTLKSDTNGK [Peptide 103] | B. High IgM, no MDA-difference |  | 
36 | TYISDWWTLAAKNLTDFAEQ [Peptide 169] | E. NHS/AHP, IgM-ak > 2, MDA-difference | at least twice as high | 
37 | VISIPRLQAEARSEILAHWS [Peptide 74] | A. High IgG, MDA-difference |  | antibody levels in cases as compared to controls, younger age group [2]: decreased antibody levels
38 | WIQNVDTKYQIRIQIQEKLQ [Peptide 149] | E. NHS/AHP, IgM-ak > 2, MDA-difference | at least twice as high | 
